Laboratory results from article doi:10.1101/2021.11.03.467147.
Read-outs that look alike come from different tables or passages of the source. Results are given in words; binding and its absence hold for the method and conditions named. Some binding calls cover weakened binding; strength is not graded here. Tags and fused reporters may be left off the sequences shown.

Amino acid sequences for entries named in this document (tags omitted).
UniProt Q12306: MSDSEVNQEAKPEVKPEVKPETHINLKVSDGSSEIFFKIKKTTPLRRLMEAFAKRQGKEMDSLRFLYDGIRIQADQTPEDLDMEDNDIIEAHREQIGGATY

Tests used:
Assay in all cases: two-hybrid
[1] = molecular target: T1, BD-Chinmo^STOP (Drosophila melanogaster) (UniProt Q9VQ30)
T1 sequence: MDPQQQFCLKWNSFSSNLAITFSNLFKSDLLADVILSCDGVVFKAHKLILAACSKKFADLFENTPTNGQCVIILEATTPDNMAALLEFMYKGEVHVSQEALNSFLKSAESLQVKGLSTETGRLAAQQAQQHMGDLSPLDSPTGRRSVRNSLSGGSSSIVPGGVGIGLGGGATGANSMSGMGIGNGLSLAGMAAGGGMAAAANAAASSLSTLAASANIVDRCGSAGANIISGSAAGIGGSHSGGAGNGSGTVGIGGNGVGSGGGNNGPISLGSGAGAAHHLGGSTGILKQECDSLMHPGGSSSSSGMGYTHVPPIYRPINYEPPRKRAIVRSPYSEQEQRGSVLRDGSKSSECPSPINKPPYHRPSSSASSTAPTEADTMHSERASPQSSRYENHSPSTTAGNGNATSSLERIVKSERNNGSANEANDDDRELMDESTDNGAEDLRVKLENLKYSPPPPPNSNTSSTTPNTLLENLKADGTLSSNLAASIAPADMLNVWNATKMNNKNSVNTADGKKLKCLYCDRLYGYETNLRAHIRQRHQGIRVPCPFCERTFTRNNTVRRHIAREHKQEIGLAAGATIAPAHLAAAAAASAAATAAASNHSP

[2] = molecular target: T2, BD-Chinmo^native (Drosophila melanogaster) (UniProt Q9VQ30)
T2 sequence: T1 sequence

[3] = molecular target: T1, BD-Chinmo^STOP (Drosophila melanogaster); remark: listed apart in the source
[4] = molecular target: T2, BD-Chinmo^native (Drosophila melanogaster); remark: listed apart in the source
[5] = molecular target: T1, BD-Chinmo^STOP (Drosophila melanogaster); remark: listed apart in the source
[6] = molecular target: T2, BD-Chinmo^native (Drosophila melanogaster); remark: listed apart in the source

Measured: binding

AD-SUMO (ScSmt3 from yeast) (from UniProt Q12306 1-101)
binds: all assays above
